No constants are given. Whether binding was seen depends on the method and setting. In cells and extracts the contact can be indirect. For part of these data: Binding calls can cover weak binding; strength is not graded here.

By UniProt entry, the sequences of proteins in these tests, tags left out. Where a name states a change or a piece, a line headed by the entry shows the natural chain unless it says otherwise.
UniProt Q5XUX0: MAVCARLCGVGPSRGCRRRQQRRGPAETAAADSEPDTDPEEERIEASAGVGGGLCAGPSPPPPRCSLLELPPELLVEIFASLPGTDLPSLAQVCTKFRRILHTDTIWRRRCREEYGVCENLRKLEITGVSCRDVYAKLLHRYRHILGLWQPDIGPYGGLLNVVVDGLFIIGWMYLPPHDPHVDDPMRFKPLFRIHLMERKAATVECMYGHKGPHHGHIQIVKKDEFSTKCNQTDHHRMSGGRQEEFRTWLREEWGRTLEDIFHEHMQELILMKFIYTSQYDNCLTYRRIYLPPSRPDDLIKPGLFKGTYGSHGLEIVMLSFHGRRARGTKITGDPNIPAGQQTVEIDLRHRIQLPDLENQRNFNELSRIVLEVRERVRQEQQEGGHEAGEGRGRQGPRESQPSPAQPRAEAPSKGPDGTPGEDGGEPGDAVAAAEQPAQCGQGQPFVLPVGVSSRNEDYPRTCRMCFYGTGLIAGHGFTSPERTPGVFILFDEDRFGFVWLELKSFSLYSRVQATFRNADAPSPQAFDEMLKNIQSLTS
UniProt P24385: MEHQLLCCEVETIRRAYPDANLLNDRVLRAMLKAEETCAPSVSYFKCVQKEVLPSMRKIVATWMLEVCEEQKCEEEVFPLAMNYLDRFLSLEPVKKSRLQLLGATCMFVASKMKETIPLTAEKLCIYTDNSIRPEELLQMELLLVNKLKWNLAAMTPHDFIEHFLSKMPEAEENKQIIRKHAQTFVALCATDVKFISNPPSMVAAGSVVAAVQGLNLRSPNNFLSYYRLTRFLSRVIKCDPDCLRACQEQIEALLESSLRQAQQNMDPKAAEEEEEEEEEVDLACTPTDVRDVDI
UniProt P15104: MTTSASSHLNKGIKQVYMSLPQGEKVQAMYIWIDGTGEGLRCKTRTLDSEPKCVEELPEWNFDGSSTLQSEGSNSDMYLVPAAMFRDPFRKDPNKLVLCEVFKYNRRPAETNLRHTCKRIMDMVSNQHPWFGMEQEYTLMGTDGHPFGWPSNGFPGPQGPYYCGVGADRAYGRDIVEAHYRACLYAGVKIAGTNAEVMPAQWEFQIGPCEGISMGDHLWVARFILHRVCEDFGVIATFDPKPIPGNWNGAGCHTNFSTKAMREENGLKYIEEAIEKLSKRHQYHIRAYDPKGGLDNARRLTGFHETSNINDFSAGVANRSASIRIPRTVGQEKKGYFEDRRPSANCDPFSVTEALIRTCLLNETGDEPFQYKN

This note sets out measurements from PMC11821526.

Test [1] has as its target HA–FBXO31(D334N,ΔF-box) (human) (UniProt Q5XUX0). Kind of test: co-IP; HA-FBXO31 cDNAs stably expressed in FBXO31-knockout HEK293 cells; mCherry–pep2 conjugates nucleofected 2 h before collection; 2 µM MLN4924 and 500 nM epoxomicin; anti-HA magnetic beads in SCF-IP buffer (150 mM NaCl, 50 mM Tris-HCl, 1 mM EDTA, 0.1% Igepal CA-630, 5% glycerol, pH 7.5), 4 °C overnight; immunoblot. On the technique in general: Immunoblotting shows a protein as a band on a membrane.

Test [2] concerns the target HA–FBXO31(ΔF-box) (human) (UniProt Q5XUX0). Nature of the test: co-IP; as a5, cells without H2O2 treatment.
The target is the same in test [3]. Kind of test: co-IP; HA–FBXO31(ΔF-box) cDNAs in FBXO31-knockout HEK293T cells under oxidative stress (H2O2 200 µM 20 min; also menadione 10 µM 2 h or auranofin 10 µM 2 h), 500 nM epoxomicin; anti-HA magnetic beads in SCF-IP buffer; immunoblot of endogenous clients.

Consider “cyclin D1 (unmodified) (from UniProt P24385 1-295)”, for which the binding result in test [1] is reported as “no binding”. Take “GLUL (glutamine synthetase) (from UniProt P15104 1-373)”: the results for the binding entry in test [2] and in test [3] were “no binding (only cells without H2O2 treatment)” and “binds”, respectively.
